Data as given in patent publication EP0006845A1, “Pharmaceutical composition comprising a 5-aroyl-1-C1-5 alkyl-pyrrole-2-acetic acid compound and acetaminophen or acetylsalicylic acid” (McNeilab, Inc., priority 1978, dated 1980).

Legend:
[1] = system: adjuvant arthritic rats; experiment: adjuvant arthritis test, evaluation of paw volume of the non-injected hind paw; format: in vivo, female Wistar, Lewis rats
Description: The efficacy of the novel combination of this invention in inhibiting inflammation and osteogenic degeneration is particularly seen in the adjuvant arthritis test. […] The adjuvant arthritis test, a test in which adjuvant arthritis which results both in inflammation and osteogenic changes is induced by Mycobacterium butvricum and in which the effect of the test compounds on each effect can be Determined, is considered to be .most useful for evaluation of compounds which may be suitable for the treatment of rheumatoid arthritis and other arthritic diseases. The test procedure, in which the effect on inflammation is determined by paw volume changes and the effect on osteogenic changes is determined by microscopic observation, is described by Wong et al, in J. Pharmacol.Exp.Ther. 185, 127-138, 1973, and is employed in the present determination of the potentiation of the antiarthritic properties of 5-aroyl-l-loweralkyl-pyrrole-2-acetic acid derivatives by aspirin or acetaminophen. […]
For evaluation of paw volume, adjuvant arthritic rats with early but significant signs of arthritis in the contralateral paw are selected on Day 11 and randomly assigned to the various groups of 10 animals in each group. […] The paw volumes of the non-injected paws are determined initially on Day 11 and again on Days 15, 18, 22, 25, and 28. […]

[2] = system: adjuvant arthritic rats; experiment: adjuvant arthritis test, evaluation of bone degeneration (osteogenic changes) in the non-injected hind paw; format: in vivo, female Wistar, Lewis rats; settings: drug alone, data from several experiments pooled
Description: The efficacy of the novel combination of this invention in inhibiting inflammation and osteogenic degeneration is particularly seen in the adjuvant arthritis test. […] The adjuvant arthritis test, a test in which adjuvant arthritis which results both in inflammation and osteogenic changes is induced by Mycobacterium butvricum and in which the effect of the test compounds on each effect can be Determined, is considered to be .most useful for evaluation of compounds which may be suitable for the treatment of rheumatoid arthritis and other arthritic diseases. The test procedure, in which the effect on inflammation is determined by paw volume changes and the effect on osteogenic changes is determined by microscopic observation, is described by Wong et al, in J. Pharmacol.Exp.Ther. 185, 127-138, 1973, and is employed in the present determination of the potentiation of the antiarthritic properties of 5-aroyl-l-loweralkyl-pyrrole-2-acetic acid derivatives by aspirin or acetaminophen.
Briefly, in this procedure, adjuvant arthritis is induced in female Wistar, Lewis rats (Charles River Breeding Laboratories. Inc., Wiimington, Mass.) weighing 160-190 gm by a single subcutaneous injection of 0.75 mg Mycobacterium butyricum (Difco) into the left hind paw. The non-injected hind paw remains a normal size for the first seven days. […] Using the paw volume determination technique (a technique in which rat paws are dippedin mercury to the hairline and the volume of displacement determined by a modified Van Arman mercury displacement method as described in the aforementioned paper of Wong et al), the time progress curve of volume changes in the non-injected (contralateral) paw is followed. […]
For evaluation of bone degenerations, normal and adjuvant arthritic rats are sacrificed under C02, after the paw volume measurements have been completed on Day 28. […] The distal end of the tibiae, the tarsals, metatarsals, phalanges, and sesamoids are evaluated under a Stereozoom Microscope (a special type of dissecting microscope, product of Bausch and Lomb). […]

Row | SMILES | regression coefficient (slope of the dose-response curve) and its 95 percent C.L. ([1]; decrease in the requirement for tolmetin vs logarithmic dose of acetaminophen) | regression coefficient of the dose response curve for osteogenic change and its 95 percent C.L. [2] | regression coefficient and its 95 percent C.L. ([1]; decrease in the requirement for tolmetin vs logarithmic dose of aspirin)
1 | CC(=O)Nc1ccc(O)cc1 [Acetaminophen, acetaminophen] | 23.4 (13.6-33.3) | 32.3 (31.0-33.6) | 
2 | CC(=O)Oc1ccccc1C(=O)O [Aspirin, acetylsalicylic acid] |  | 33.4 (32.1 - 34.6) | 25.1 (17.8 - 32.5)
3 | Cc1ccc(C(=O)c2ccc(CC(=O)O)n2C)cc1 [Tolmetin, 1-methyl-5-p-toluoyl-pyrrole-2-acetic acid] |  | 28.9 (27.6-30.2) | 
